# Measurements reported in PubChem BioAssay AID540276 (National Center for Advancing Translational Sciences (NCATS), 2011).
# “And” between values parts separate entries of the source, which are not always exact repeats. Equal values may be shown once. The campaign covered roughly 300,000 compounds. About 5,400 (1.8%) were called active. Inconclusive means that the source gave no clear call. Such entries were picked first, then a sample of the others. The call rests on the fitted dose curve; tested in HEK293 cells. Where the call is inconclusive, the potency comes from a doubtful curve fit.
# Assay: qHTS for inhibitors of binding or entry into cells for Marburg Virus
# Conditions: Marburg virus pseudotyped entry inhibition, cell reporter; series mostly up to 37.8 µM
# Potency means the concentration at half of the fitted maximal effect.
row,SMILES,Potency
1,C/C(=N\NC(=O)c1cc2ccccc2cc1O)c1ccccn1,"inconclusive: 7.08 µM [inhibitor, full curve, poor fit]"
2,CCCOc1ccccc1C(=O)N1CCCCC1CCN1CCCCC1 (centres undefined),"inconclusive: 22.4 µM [inhibitor, single point]"
3,Cc1ccc(C)c(N(C(=O)Cn2nnc3ccccc32)C(C(=O)NC(C)(C)C)c2ccsc2)c1 (centres undefined),inactive
4,O=C1/C(=C\c2ccccc2)CCc2c1[nH]c1ccccc21,active: 16.4 µM
5,CCCCCSc1nnc(-c2ccccc2N)c(=O)[nH]1,"inconclusive: 2 µM [activator, partial curve, poor fit]"
6,CCOC(=S)SCC(=O)Nc1nccs1,"inconclusive: 35.5 µM [inhibitor, single point]"
7,CC(C)n1c(SCC(=O)N2c3ccccc3Sc3ccccc32)nc2c1c(=O)n(C)c(=O)n2C,active: 9.2 µM
8,Cc1ccc(C(=O)Nc2ccccc2C(=O)N2CC3(C)CC2CC(C)(C)C3)cc1 (centres undefined),"inconclusive: 35.5 µM [inhibitor, single point]"
9,COc1cccc(C=NNC(=O)CCCC(=O)NN=Cc2cccc(OC)c2)c1,inactive
10,O=C(CN1C(=O)C2C3C=CC(C4CC34)C2C1=O)NCc1ccco1 (centres undefined),inactive
11,COc1ccc(C(=S)NC2CCCCC2)cc1,inactive
12,Cc1nc2sc3c(c2c(=O)o1)CC(C)(C)OC3,inactive
13,Cc1ccc(NC(=O)CSc2nnc(C)c(=O)[nH]2)cc1,inactive
14,Cc1ccc(C(=O)c2sc3nsc(C)c3c2N)cc1,"inconclusive: 0.1 µM [activator, full curve, poor fit]"
15,CCOC(=O)CSC1=NN2CCS(=O)(=O)N=C2S1,"inconclusive: 25.1 µM [activator, single point]"
16,C/C(=N\NC(=O)C1CCCC1)c1ccc(C(C)C)cc1,inactive
17,O=C(CCc1ccc(Oc2cc([N+](=O)[O-])cc([N+](=O)[O-])c2)cc1)N1CCCCCC1,"inconclusive: 11.2 µM [inhibitor, single point]"
18,CCCOC(=O)c1[nH]c2c(c1C)C(=O)CC(c1ccc(OC)c(OC)c1)C2 (centres undefined),inactive
19,Nc1ccc2c(c1)C(=O)c1ccccc1-2,"inconclusive: 35.5 µM [activator, single point]"
20,O=C(CN1c2cccc3cccc(c23)S1(=O)=O)Nc1ccccc1,"inconclusive: 3.55 µM [inhibitor, partial curve, poor fit]"
21,COc1cc(NC(=O)c2cc(OC)c(OC)c(OC)c2)c2ncccc2c1,"inconclusive: 10 µM [inhibitor, partial curve]"
22,COc1ccc(CN2CCN(Cc3c[nH]c4ccccc34)CC2)cc1,"inconclusive: 35.5 µM [inhibitor, single point]"
23,COc1cccc(NC(=O)N2CCN(c3nnnn3-c3ccccc3)CC2)c1,"inconclusive: 3.55 µM [activator, single point]"

row,SMILES,Potency
1,O=C(C[C@H]1C[C@H](C(=O)N2CCCCC2)[C@@]2(CCc3ccccc3)c3[nH]c4ccc(Cl)cc4c3CCN2C1=O)NCc1ccco1,inactive
2,CCCn1c(N)c(C(=O)CSc2ncc(C(F)(F)F)cc2Cl)c(=O)[nH]c1=O,"inconclusive: 3.55 µM [inhibitor, single point]"
3,COc1ccc(C(=O)c2ccc(C)cc2)c(OC)c1OC,"inconclusive: 11.2 µM [inhibitor, partial curve, poor fit]"
4,CNc1nnc(CSc2nc(C)cc(C)n2)s1,"inconclusive: 5.01 µM [inhibitor, single point]"
5,O=C(N/N=C/c1ccc(Cl)c([N+](=O)[O-])c1)c1cc(-c2ccc3c4c(cccc24)CC3)n[nH]1,"inconclusive: 15.8 µM [inhibitor, single point]"
6,CCOC(=O)c1ccc(NC(=O)c2cc3c(n(-c4ccc(C)cc4)c2=O)CC(C)(C)CC3=O)cc1,inactive
7,CC(Cc1cccs1)NC(=O)Nc1ccc(Cl)cc1 (centres undefined),inactive
8,CNc1nc2c(c(=O)n(C)c(=O)n2C)n1CCCc1ccccc1,"inconclusive: 11.2 µM [inhibitor, partial curve, poor fit]"
9,Cc1ccc(N=Nc2c(O)n(CN3CCOCC3)c3ccccc23)cc1,"inconclusive: 5.62 µM [activator, partial curve, poor fit]"
10,COc1ccc(/C=C2/SC(=O)N(CCNC(=O)C3CCCN3C(=O)c3cccs3)C2=O)cc1 (centres undefined),"inconclusive: 22.4 µM [inhibitor, single point]"
11,O=C(Nc1ccccc1C(=O)N1CCOCC1)c1noc2c1CCCC2,inactive
12,C=C(C)C1CC=C(C)/C(=N\NC(=O)CCc2ccccc2)C1 (centres undefined),"inconclusive: 0.366 µM [inhibitor, full curve, poor fit]"
13,N#Cc1ccc(-c2csc(NNC(=O)c3ccc(Br)cc3)n2)cc1,"inconclusive: 17.8 µM [inhibitor, partial curve, poor fit]"
14,O=C(CSc1nc2c(oc3ccccc32)c(=O)[nH]1)Nc1cccc(Cl)c1,"inconclusive: 2.82 µM [activator, partial curve, poor fit]"
15,CC1=C(c2ccc(Cl)cc2)S(=O)(=O)NC1=NCc1ccc(C)cc1,inactive
16,CCC(=O)NC(c1cccc([N+](=O)[O-])c1)c1c(OC(C)=O)ccc2ccccc12 (centres undefined),"inconclusive: 14.1 µM [inhibitor, partial curve, poor fit]"
17,Cc1c(C(=O)Nc2ccccc2N2CCN(C)CC2)oc2ccc(F)cc12,"inconclusive: 35.5 µM [inhibitor, single point]"
18,Cc1nc(SCC(=O)Nc2ccc(F)cc2)c(C#N)c(C)c1CC(=O)c1ccc(Br)cc1,"inconclusive: 11.2 µM [inhibitor, partial curve, poor fit]"
19,Cc1c(Cl)cccc1NC(=O)CSc1cc(-c2ccccc2)ncn1,inactive
20,CN1C(=O)/C(=C\c2ccncc2)SC1=Nc1ccccc1,"inconclusive: 0.501 µM [inhibitor, partial curve, poor fit]"
21,Cc1ccc(N/N=C(\C#N)C(=N)N2CCCCC2)cc1,"inconclusive: 0.891 µM [activator, full curve, poor fit]"
22,Cc1cc(C(=O)CN2C(=O)C(=O)N(Cc3ccccc3)C2=O)c(C)n1-c1ccc2c(c1)OCCO2,"inconclusive: 20 µM [inhibitor, single point]"
23,Cc1ccc(NC(=O)c2cc(-c3ccccc3)nn2-c2ccccc2)cc1,"inconclusive: 35.5 µM [inhibitor, single point]"

# In the list so far, these have a cyano group.
row,SMILES,Potency
13,N#Cc1ccc(-c2csc(NNC(=O)c3ccc(Br)cc3)n2)cc1,"inconclusive: 17.8 µM [inhibitor, partial curve, poor fit]"
18,Cc1nc(SCC(=O)Nc2ccc(F)cc2)c(C#N)c(C)c1CC(=O)c1ccc(Br)cc1,"inconclusive: 11.2 µM [inhibitor, partial curve, poor fit]"
21,Cc1ccc(N/N=C(\C#N)C(=N)N2CCCCC2)cc1,"inconclusive: 0.891 µM [activator, full curve, poor fit]"

# (cont.)

row,SMILES,Potency
1,O=C(COc1ccccc1-c1ccccc1)N/N=C/c1cccc2ccccc12,"inconclusive: 2.82 µM [inhibitor, full curve, poor fit]"
2,Cc1onc(-c2ccccc2Cl)c1C(=O)Nc1nn[nH]n1,inactive
3,Cc1ccc(C)c(N(C(=O)c2nsc(Cl)c2Cl)C(C(=O)NC2CCCC2)c2ccc(O)cc2)c1 (centres undefined),"inconclusive: 35.5 µM [inhibitor, single point]"
4,CC1CCCN(c2nc(N(C)c3ccccc3)nc(N)c2[N+](=O)[O-])C1 (centres undefined),"inconclusive: 35.5 µM [inhibitor, single point]"
5,Cc1ccc(C(=O)Oc2ccc3c(c2)ncn3C)cc1,inactive
6,O=c1c2ccccc2nc(/C=C/c2ccc(Br)cc2)n1CCO,"inconclusive: 22.4 µM [inhibitor, partial curve, poor fit]"
7,Cc1ccc(C)c(CN2C(=O)c3ccccc3S(=O)c3ccc(C(=O)NCc4ccco4)cc32)c1 (centres undefined),"inconclusive: 35.5 µM [inhibitor, single point]"
8,Cc1ccc(NC(=O)Cn2c(=O)n(CCc3ccccc3)c(=O)c3c4c(sc32)CCCC4)cc1C,inactive
9,O=C(Nc1ccc(F)cc1)N1CCOCC1,inactive
10,O=[N+]([O-])c1c(NCc2ccccc2)cc(N2CCc3ccccc3C2)c2nonc12,"inconclusive: 2.24 µM [inhibitor, partial curve]"
11,COc1ccc(S(=O)(=O)N2CCCCCC2)cc1C(=O)N(C)Cc1cccc(OC)c1OC,"inconclusive: 0.794 µM [inhibitor, full curve, poor fit]"
12,Cc1ccc(CCNC(=O)CCc2nc3ccccc3[nH]2)cc1,inactive
13,O=C(CCC(=O)Nc1ccc(Cl)cc1)N/N=C/c1ccc2c(c1)OCO2,inactive
14,CNC(=O)N(O)C1N(c2ccccc2)C(=S)SC1(C)C (centres undefined),"inconclusive: 7.08 µM [activator, partial curve, poor fit]"
15,Cc1ccc2c(c1)c(C)cc[n+]2Cc1ccccc1,active: 10 µM
16,COc1ccc(NC(=O)/C(Cl)=C(/Cl)S(=O)Cc2ccc(Cl)cc2)cn1 (centres undefined),"inconclusive: 1 µM [inhibitor, full curve, poor fit]"
17,Cc1ccc([N+](=O)[O-])cc1NC(=O)CN(C(=O)c1ccc(Cl)cc1)C1CCCCC1,"inconclusive: 18.3 µM [inhibitor, partial curve, poor fit]"
18,CCOc1ccc(NC(=O)CSc2nc(-c3cccs3)cc(C(F)(F)F)n2)c([N+](=O)[O-])c1,"inconclusive: 0.316 µM [inhibitor, partial curve, poor fit]"
19,CC(C)(C)OC(=O)NCCc1nnc(SCC(=O)c2ccc(Cl)cc2)o1,"inconclusive: 5.17 µM [inhibitor, single point]"
20,Oc1ccc2c3c1O[C@H]1c4[nH]c5ccccc5c4C[C@@]4(O)C(C2)N(CC2CC2)CCC314 (some centres undefined),active: 2 µM and active: 16.4 µM
21,CNc1nc2c(C)cccn2c(=O)c1C=NCc1ccccc1,inactive
22,COc1ccc(OCC(O)CNC2CCCC2)cc1 (centres undefined),inactive
23,Cn1nnnc1SCCCNCc1ccccc1OCc1ccccc1F,"inconclusive: 11.2 µM [inhibitor, partial curve, poor fit]"

# Entries shown so far that have a CF3 group (2):
row,SMILES,Potency
2,CCCn1c(N)c(C(=O)CSc2ncc(C(F)(F)F)cc2Cl)c(=O)[nH]c1=O,"inconclusive: 3.55 µM [inhibitor, single point]"
18,CCOc1ccc(NC(=O)CSc2nc(-c3cccs3)cc(C(F)(F)F)n2)c([N+](=O)[O-])c1,"inconclusive: 0.316 µM [inhibitor, partial curve, poor fit]"
